# Results published in PubChem BioAssay AID256 (DTP/NCI, 2004).
# The list shows only some results of the screen, not a fair sample: it gathers tests that were run many times, whatever their T/C, doses with no T/C, and many T/C values between a quarter and a half above the control. Other doses and runs of a compound stand elsewhere. T/C gives the treated animals as a percentage of the vehicle group. Some doses have a count of surviving animals in place of a T/C: the source holds a T/C of zero for them, seemingly a mark for toxic or unscored doses. Some doses without a T/C left all or most animals alive at the check, yet need not have been tolerated: the source hardly ever lists a survival T/C far under the control, and the zero likely stands for such cases as well. Survivors were counted at the toxicity check, usually on the fifth day, unless a day is given; later deaths do not show. Schedules are NCI's codes, read here as Q, the interval in days (D) or hours (H), X, the number of doses. Some entries hold several experiments; the results are listed from low to high. Counts like (3×) give the number of equal values in this list. For survival time, this PubChem deposit counts one and a half times the control or more as active, and values a quarter to a half above the control carry no call in these data; other NCI protocols may use other cut-offs. Some T/C values carry the count of animals alive at the toxicity check (mostly the fifth day); where none is given, no animal had died by that day.
# Test system: CD2F1 mice, L1210 leukemia ip, survival T/C
# Assay: NCI In Vivo Anticancer Drug Screen. Data for tumor model L1210 Leukemia (intraperitoneal) in CD2F1 (CDF1) mice
# Conditions: higher T/C = longer survival
# Summary of the method: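 Transplantable tumor in mice; compound-treated vs vehicle-treated groups. Read-out = treated/control ratio of the measured endpoint.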
# [1] = T/C endpoint: mean survival time, dose: 200.0 mg/kg/injection, schedule: Q01DX009 (ip), vehicle: citric acid
# [2] = T/C endpoint: mean survival time, dose: 50.0 mg/kg/injection, schedule: Q04DX003 (ip), vehicle: saline with Tween-80
# [3] = T/C endpoint: mean survival time, dose: 200.0 mg/kg/injection, schedule: Q04DX003 (ip), vehicle: saline
# [4] = T/C endpoint: mean survival time, dose: 400.0 mg/kg/injection, schedule: Q04DX003 (ip), vehicle: saline
# [5] = T/C endpoint: mean survival time, dose: 100.0 mg/kg/injection, schedule: Q04DX002 (ip), vehicle: saline with Tween-80
# [6] = T/C endpoint: mean survival time, dose: 400.0 mg/kg/injection, schedule: Q04DX003 (ip), vehicle: saline with Tween-80
smiles,measurement,setting,value
CN(N=O)C(=O)N[C@@H](C=O)[C@@H](O)[C@H](O)[C@H](O)CO,T/C,"T/C endpoint: mean survival time, dose: 12.5 mg/kg/injection, schedule: Q01DX009 (ip), vehicle: citric acid, evaluated on day 30","96, 107, 110 % of control (2×)"
same,T/C,"T/C endpoint: mean survival time, dose: 12.5 mg/kg/injection, schedule: Q01DX009 (ip), vehicle: citric acid, evaluated on day 50",96 % of control
same,T/C,"T/C endpoint: mean survival time, dose: 12.5 mg/kg/injection, schedule: Q01DX009 (ip), vehicle: other, evaluated on day 30","97, 104 (2×), 105 % of control"
same,T/C,"T/C endpoint: mean survival time, dose: 12.5 mg/kg/injection, schedule: Q01DX009 (ip), vehicle: other, evaluated on day 37",103 % of control
same,T/C,"T/C endpoint: mean survival time, dose: 12.5 mg/kg/injection, schedule: Q01DX009 (ip), vehicle: other, evaluated on day 45",103 % of control
same,T/C,"T/C endpoint: mean survival time, dose: 25.0 mg/kg/injection, schedule: Q01DX009 (ip), vehicle: citric acid, evaluated on day 30","107, 109, 113, 129 % of control"
same,T/C,"T/C endpoint: mean survival time, dose: 25.0 mg/kg/injection, schedule: Q01DX009 (ip), vehicle: citric acid, evaluated on day 50",110 % of control
same,T/C,"T/C endpoint: mean survival time, dose: 25.0 mg/kg/injection, schedule: Q01DX009 (ip), vehicle: other, evaluated on day 30","113, 113 [5 of 6 alive], 114, 117 % of control"
same,T/C,"T/C endpoint: mean survival time, dose: 25.0 mg/kg/injection, schedule: Q01DX009 (ip), vehicle: other, evaluated on day 37",122 % of control
same,T/C,"T/C endpoint: mean survival time, dose: 25.0 mg/kg/injection, schedule: Q01DX009 (ip), vehicle: other, evaluated on day 45",105 % of control
same,T/C,"T/C endpoint: mean survival time, dose: 25.0 mg/kg/injection, schedule: Q01DX009 (ip), vehicle: saline",125 % of control
same,T/C,"T/C endpoint: mean survival time, dose: 50.0 mg/kg/injection, schedule: Q01DX009 (ip), vehicle: citric acid, evaluated on day 30","123, 127, 131, 138 % of control"
same,T/C,"T/C endpoint: mean survival time, dose: 50.0 mg/kg/injection, schedule: Q01DX009 (ip), vehicle: citric acid, evaluated on day 50",138 % of control
same,T/C,"T/C endpoint: mean survival time, dose: 50.0 mg/kg/injection, schedule: Q01DX009 (ip), vehicle: other, evaluated on day 30","117, 124, 127, 134 % of control"
same,T/C,"T/C endpoint: mean survival time, dose: 50.0 mg/kg/injection, schedule: Q01DX009 (ip), vehicle: other, evaluated on day 37",129 % of control
same,T/C,"T/C endpoint: mean survival time, dose: 50.0 mg/kg/injection, schedule: Q01DX009 (ip), vehicle: other, evaluated on day 45",95 % of control
same,T/C,"T/C endpoint: mean survival time, dose: 50.0 mg/kg/injection, schedule: Q01DX009 (ip), vehicle: saline",127 % of control
same,T/C,"T/C endpoint: mean survival time, dose: 66.0 mg/kg/injection, schedule: Q01DX009 (ip), vehicle: other",137 % of control
same,T/C,"T/C endpoint: mean survival time, dose: 100.0 mg/kg/injection, schedule: Q01DX009 (ip), vehicle: citric acid, evaluated on day 30","112, 147, 150, 168 % of control"
same,T/C,"T/C endpoint: mean survival time, dose: 100.0 mg/kg/injection, schedule: Q01DX009 (ip), vehicle: citric acid, evaluated on day 50",128 % of control
same,T/C,"T/C endpoint: mean survival time, dose: 100.0 mg/kg/injection, schedule: Q01DX009 (ip), vehicle: other, evaluated on day 30","89, 93 [5 of 6 alive], 109, 111 % of control [4 of 6 alive]"
same,T/C,"T/C endpoint: mean survival time, dose: 100.0 mg/kg/injection, schedule: Q01DX009 (ip), vehicle: other, evaluated on day 37",151 % of control
same,T/C,"T/C endpoint: mean survival time, dose: 100.0 mg/kg/injection, schedule: Q01DX009 (ip), vehicle: other, evaluated on day 45",94 % of control
same,survivor count,"T/C endpoint: mean survival time, dose: 100.0 mg/kg/injection, schedule: Q01DX009 (ip), vehicle: other",4 of 6
same,T/C,[1],88 % of control
same,survivor count,[1],"2 of 6, 4 of 6, 5 of 6, 6 of 6"
same,survivor count,"T/C endpoint: mean survival time, dose: 200.0 mg/kg/injection, schedule: Q01DX009 (ip), vehicle: other","0 of 6, 1 of 6, 2 of 6, 3 of 6 (2×)"
same,survivor count,"T/C endpoint: mean survival time, dose: 400.0 mg/kg/injection, schedule: Q01DX001 (ip), vehicle: other",7 of 10
same,survivor count,"T/C endpoint: mean survival time, dose: 400.0 mg/kg/injection, schedule: Q04DX003 (ip), vehicle: other",3 of 6
same,survivor count,"T/C endpoint: mean survival time, dose: 512.0 mg/kg/injection, schedule: Q03HX008 (ip), vehicle: other",3 of 10
same,survivor count,"T/C endpoint: mean survival time, dose: 512.0 mg/kg/injection, schedule: Q03HX016 (ip), vehicle: other",2 of 10
NC(=O)c1cn(C2OC(CO)C(O)C2O)c2nc(N)nc(N)c2c1=O (stereo not given),T/C,"T/C endpoint: mean survival time, dose: 200.0 mg/kg/injection, schedule: Q01DX005 (ip), vehicle: water",131 % of control
same,T/C,"T/C endpoint: median survival time, dose: 400.0 mg/kg/injection, schedule: Q01DX005 (ip), vehicle: saline with Tween-80",127 % of control [5 of 6 alive]
CCC[CH2][Sn]([CH2]CCC)([n]1cncn1)[n]1cncn1,survivor count,"T/C endpoint: mean survival time, dose: 25.0 mg/kg/injection, schedule: Q04DX003 (ip), vehicle: saline with Tween-80",0 of 6
same,survivor count,[2],0 of 6
CC(C)(C[NH-])C[NH-].O=C(O)CC(=O)O.[Pt+2],T/C,"T/C endpoint: median survival time, dose: 6.25 mg/kg/injection, schedule: Q04DX003 (ip), vehicle: distilled water + Tween-80",149 % of control
same,T/C,"T/C endpoint: median survival time, dose: 6.25 mg/kg/injection, schedule: Q04DX003 (ip), vehicle: water",132 % of control
same,survivor count,"T/C endpoint: median survival time, dose: 50.0 mg/kg/injection, schedule: Q04DX003 (ip), vehicle: distilled water + Tween-80",1 of 6
same,survivor count,"T/C endpoint: median survival time, dose: 100.0 mg/kg/injection, schedule: Q04DX003 (ip), vehicle: distilled water + Tween-80",2 of 6
same,survivor count,"T/C endpoint: median survival time, dose: 200.0 mg/kg/injection, schedule: Q04DX003 (ip), vehicle: distilled water + Tween-80",2 of 6
CC(CC(=O)O)[Se][Se]C(C)CC(=O)O (stereo not given),T/C,"T/C endpoint: mean survival time, dose: 400.0 mg/kg/injection, schedule: Q01DX001 (ip), vehicle: saline with Tween-80",126 % of control [2 of 3 alive]
O=[N+]([O-])c1ccc(F)cc1,survivor count,"T/C endpoint: mean survival time, dose: 100.0 mg/kg/injection, schedule: Q04DX003 (ip), vehicle: saline",3 of 6
same,survivor count,[3],0 of 6
same,survivor count,[4],1 of 6
CC(=O)OC1(c2ccccc2)CC(=O)C=C1c1ccccc1 (stereo not given),survivor count,[5],0 of 3
same,survivor count,"T/C endpoint: mean survival time, dose: 200.0 mg/kg/injection, schedule: Q04DX002 (ip), vehicle: saline with Tween-80",0 of 3
same,survivor count,"T/C endpoint: mean survival time, dose: 400.0 mg/kg/injection, schedule: Q04DX002 (ip), vehicle: saline with Tween-80",0 of 3
Nc1ncnc2c1ncn2CCCl,survivor count,"T/C endpoint: mean survival time, dose: 100.0 mg/kg/injection, schedule: Q01DX009 (ip), vehicle: saline with Tween-80",2 of 6
OC(CC1CCCC(CC(O)c2ccccc2)N1CCc1ccccc1)c1ccccc1 (stereo not given),survivor count,"T/C endpoint: mean survival time, dose: 300.0 mg/kg/injection, schedule: Q01DX001 (ip), vehicle: saline",0 of 6
CCN(CC)Cc1ccc(Nc2cc(C)nc(/N=C(\N)Nc3ccc(Cl)c(Cl)c3)n2)cc1,survivor count,[2],5 of 6
same,survivor count,"T/C endpoint: mean survival time, dose: 100.0 mg/kg/injection, schedule: Q04DX003 (ip), vehicle: saline with Tween-80",5 of 6
same,survivor count,"T/C endpoint: mean survival time, dose: 200.0 mg/kg/injection, schedule: Q04DX003 (ip), vehicle: saline with Tween-80",1 of 6
same,survivor count,[6],0 of 6
Cc1c2c(O)c(O)c(O)cc2c[n+]2ccccc12,survivor count,"T/C endpoint: mean survival time, dose: 100.0 mg/kg/injection, schedule: Q01DX009 (ip), vehicle: saline",0 of 3
same,survivor count,"T/C endpoint: mean survival time, dose: 200.0 mg/kg/injection, schedule: Q01DX009 (ip), vehicle: saline",0 of 3
C=CC1CC[N-]CC1.C=CC1CC[N-]CC1.C=CC1CC[N-]CC1.[Cl][Cr]([Cl])[Cl],survivor count,[3],0 of 6
same,survivor count,[4],0 of 6
CCC(C)Nc1ccc(N)cc1 (stereo not given),survivor count,"T/C endpoint: mean survival time, dose: 12.5 mg/kg/injection, schedule: Q01DX009 (ip), vehicle: carboxymethylcellulose (CMC)",0 of 6
same,survivor count,"T/C endpoint: mean survival time, dose: 25.0 mg/kg/injection, schedule: Q01DX009 (ip), vehicle: carboxymethylcellulose (CMC)",0 of 6
same,survivor count,"T/C endpoint: mean survival time, dose: 50.0 mg/kg/injection, schedule: Q01DX009 (ip), vehicle: carboxymethylcellulose (CMC)",0 of 6
Cc1ccc(S(=O)(=O)CC(=O)O)cc1,survivor count,[6],3 of 3
COc1ccc(/C=C2\SC(=O)NC2=O)cc1,survivor count,[6],0 of 3
O=CNc1ccccc1.[Hg],survivor count,"T/C endpoint: mean survival time, dose: 25.0 mg/kg/injection, schedule: Q04DX002 (ip), vehicle: saline with Tween-80",1 of 3
same,survivor count,"T/C endpoint: mean survival time, dose: 50.0 mg/kg/injection, schedule: Q04DX002 (ip), vehicle: saline with Tween-80",0 of 3
same,survivor count,[5],0 of 3
